# The whole screen tested about 320,000 compounds, of which about 22,000 (6.9%) were called active. This list was built around the results that the source calls inconclusive (neither active nor inactive); the mix of calls is not that of the screen. The call rests on the fitted dose curve; in most records, active means well fitted inhibition curve with a large enough effect; inconclusive means small, poorly fitted or top-dose-only effect, or another doubt; inactive means no such curve, though single readings can be large or run the other way. Potencies of inconclusive entries are doubtful fits and often do not repeat. A structure can be active in one record and inactive in another.
# Experiment: Primary qHTS for delayed death inhibitors of the malarial parasite plastid, 96 hour incubation
# Details: P. falciparum luciferase reporter growth; series mostly up to 28.7 µM; activity change, negative = inhibition: at the top concentration
# In short: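 P. falciparum expressing integrated firefly luciferase grown in erythrocytes (2% hematocrit, 0.05% parasitemia final) with compounds for 96 hours at 37 C, 5% CO2. Growth inhibition read as loss of luminescence after adding luciferase detection reagent.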
# On the % scale 0 is the no-effect control and ±100 the full control effect; potency means the concentration at half of the fitted maximal effect.
Structure (SMILES),Potency,"activity change, negative = inhibition"
O=C(NCCCN1CCC(Cc2ccccc2)CC1)C1CCC(=O)N1C1CCCC1 (stereo unspecified),"inconclusive: 18.5 µM [inhibitor, single point]",
O=C(CCCNS(=O)(=O)c1cccc2nsnc12)N1CCCCC1,"inconclusive: 18.5 µM [inhibitor, single point]",
Cc1ccc(C)c(N2N=C(C(=O)Nc3ccccc3N3CCCC3)CCC2=O)c1,"inconclusive: 9.28 µM [inhibitor, partial curve]",
Cc1ccccc1-c1nc(CN2CCC(C(=O)NCCCN3CCOCC3)CC2)c(C)o1,,inactive: -0.482%
COC(=O)c1ccc(COc2ccc(F)cc2)o1,"inconclusive: 1.47 µM [inhibitor, full curve]",
Cc1cc(C)c(C#N)c(SCC(=O)OC2CCCCC2)n1,"inconclusive: 4.15 µM [inhibitor, single point]",
CCc1ccccc1N(CC(=O)NCC1CCCO1)C(=O)CCC(=O)Nc1nccs1 (stereo unspecified),"inconclusive: 18.5 µM [inhibitor, single point]",
CC(C)C(=O)c1cn(CC(=O)NCc2ccco2)c2ccccc12,"inconclusive: 9.28 µM [inhibitor, single point]",
O=S(=O)(c1ccccc1F)N1CCN(c2nc(-c3cccnc3)nc3ccccc23)CC1,"inconclusive: 18.5 µM [inhibitor, single point]",
O=C(O)CCCN=Cc1c(O)c2ccccc2oc1=O,active: 10.4 µM,
CC(=O)N1C(O)CC(C)N1c1ccccc1 (stereo unspecified),"inconclusive: 18.5 µM [inhibitor, single point]",
CCOC(=O)CC(=O)Nc1ccc(C)cc1,,inactive: 46.8%
COc1cccc(OCCn2c(C)c(/C=N/n3cnnc3)c3ccccc32)c1,"inconclusive: 5.86 µM [inhibitor, partial curve, poor fit]",
CN(CCC1CCOCC1)Cc1cn[nH]c1-c1ccc(-c2ccccc2)cc1,active: 13.1 µM,
COc1ccccc1NS(=O)(=O)c1cccc(C(=O)NCC(c2ccco2)N(C)C)c1 (stereo unspecified),,inactive: -29.4%
Cc1ccc(CSCC(=O)NCc2ccc(F)cc2)cc1,"inconclusive: 18.5 µM [inhibitor, single point]",
COc1ccc(CN(C)C(=O)C(Cc2ccccc2)NC(=O)c2ccccc2)c(OC)c1 (stereo unspecified),"inconclusive: 13.1 µM [inhibitor, single point]",
CC(=O)c1cn(CCCOc2ccccc2)c2ccccc12,,inactive: 14.6%
CCCCCCSc1cccc(-c2nc3ccc(C)cn3c2NCc2ccccc2)c1,active: 11.7 µM,
Cc1cccc(NC(=O)CC(C)S(=O)(=O)c2ccc3c(c2)NC(=O)CO3)c1C (stereo unspecified),"inconclusive: 4.15 µM [inhibitor, partial curve]",
COc1ccc(NC(=O)CSc2ccc3nnc(CCNC(=O)c4ccccc4)n3n2)cc1OC,,inactive: -11.3%
O=C(CSc1nc2c(c(=O)n1-c1ccc(Cl)cc1)SCC2)Nc1ccc2c(c1)OCCO2,,inactive: 8.08%
CC(C)NC(=O)NC(=O)CSc1nnc(COc2ccccc2Cl)o1,,inactive: 0%

Structure (SMILES),Potency,"activity change, negative = inhibition"
CCCCn1c(-c2ccncc2)nc2c1c(=O)[nH]c(=O)n2CC(C)C,"inconclusive: 2.08 µM [inhibitor, full curve, poor fit]",
CCCN(CCC)CCCNc1ccc(C(=O)Nc2cccc(OC)c2)cc1[N+](=O)[O-],,inactive: 12.5%
Cc1cc(NC(=O)CCC(=O)N(Cc2ccc(F)cc2)C(C(=O)NC2CCCC2)c2ccco2)no1 (stereo unspecified),,inactive: -0.972%
CN(C)CCN(C(=O)c1cccc2ccccc12)c1nc2cc3c(cc2s1)OCO3,"inconclusive: 0.208 µM [inhibitor, full curve, poor fit]",
O=C(NCCc1nnc2ccc(NCCCN3CCOCC3)nn12)c1ccccc1F,,inactive: 34.4%
CC1CCCN(C(C(=O)Nc2ccc3c(c2)OCO3)c2ccccc2)C1 (stereo unspecified),"inconclusive: 0.0657 µM [inhibitor, full curve, poor fit]",
CC1(C)CC(=O)C(C=NCCN2CCN(C3CC(=O)N(c4ccc(Br)cc4)C3=O)CC2)=C(O)C1 (stereo unspecified),active: 13.1 µM,
CCC(=O)c1ccc(O)cc1,active: 15.1 µM,
CC1CCc2sc(C(=O)N=Nc3c(O)[nH]c4ccccc34)cc2C1 (stereo unspecified),,inactive: 42.4%
O=C(CN1CCCCCC1)N1c2ccccc2Sc2ccccc21,"inconclusive: 18.5 µM [inhibitor, single point]",
CCc1nnc(NS(=O)(=O)c2ccc(NC(=O)COc3ccc4ccccc4c3)cc2)s1,"inconclusive: 16.5 µM [inhibitor, single point]",
COCCCNC(=O)C1CCN(C(=O)c2cc3sccc3n2Cc2ccc(F)cc2)CC1,"inconclusive: 0.0033 µM [inhibitor, full curve, poor fit]",
O=C(NCC1COc2ccccc2O1)C1CCCN(S(=O)(=O)c2cnc[nH]2)C1 (stereo unspecified),,inactive: 160%
O=C1CN(C(=O)c2ccccc2Br)C(c2ccc(F)cc2)c2cc(F)ccc2N1 (stereo unspecified),,inactive: 2.66%
C=CCNCCCOc1ccc(C(C)(C)c2ccccc2)cc1,"inconclusive: 5.22 µM [inhibitor, partial curve, poor fit]",
COc1cccc(Nc2c(F)c(F)c(F)c(F)c2C(=O)O)c1,active: 13.1 µM,
OC(COCc1ccc(Cl)cc1)CN1CCc2ccccc2C1 (stereo unspecified),"inconclusive: 18.5 µM [inhibitor, single point]",
CCn1c(SCc2ccc(C(=O)OC)o2)nnc1-c1c[nH]c2ccccc12,"inconclusive: 13.1 µM [inhibitor, partial curve, poor fit]",
S=C(N/N=C/c1ccc(Cl)cc1)N1CCOCC1,,inactive: 46.5%
Cn1c(CNC(=O)c2ccco2)nnc1SCC(=O)c1ccccc1,"inconclusive: 13.1 µM [inhibitor, partial curve]",
Cc1nn(CCCC(=O)NCc2ccccc2Cl)c(=O)c2nccn12,active: 1.04 µM,
S=c1[nH]nc(-c2ccco2)n1/N=C/c1ccc(Br)s1,"inconclusive: 14.7 µM [inhibitor, single point]",
CC1(C(=O)NC(=S)NNC(=O)c2ccncc2)CCCCC1,"inconclusive: 14.7 µM [inhibitor, single point]",
CCOC(=O)[C@H]1[C@H]2COc3ccc(OC)cc3[C@@H]2N2C(=O)c3ccc(C)cc3NC(=O)[C@@]12C,"inconclusive: 18.5 µM [inhibitor, single point]",

# One compound at a time, as listed above:
# COc1ccccc1NS(=O)(=O)c1cccc(C(=O)NCC(c2ccco2)N(C)C)c1 (stereo unspecified) in the list: activity change, negative = inhibition: inactive: -29.4%
# O=C(CSc1nc2c(c(=O)n1-c1ccc(Cl)cc1)SCC2)Nc1ccc2c(c1)OCCO2 in the list: activity change, negative = inhibition: inactive: 8.08%

# (further entries)

Structure (SMILES),Potency,"activity change, negative = inhibition"
COc1ccccc1C1CC(c2cccs2)=Nc2ccccc2S1 (stereo unspecified),active: 10.4 µM,
O=C(CSc1nnc2c(n1)[nH]c1ccccc12)NC1CCCCC1,"inconclusive: 18.5 µM [inhibitor, single point]",
CCn1cc(CNC(=O)c2cc(-c3ccccc3OC)nc3ccccc23)c(C)n1,"inconclusive: 11.7 µM [inhibitor, partial curve, poor fit]",
COC(=O)/C(=C1/Oc2ccc(C)cc2S1)C(F)(F)F,"inconclusive: 0.147 µM [inhibitor, full curve, poor fit]",
COc1cc(Cl)ccc1OCc1cc(C(=O)NCC(C)c2ccccc2)no1 (stereo unspecified),,inactive: -28.2%
COc1ccccc1NC(=O)CC(=O)c1ccccc1,,inactive: 49.8%
O=C(CCc1nnc2ccc(N3CCCC3)nn12)Nc1ccc(F)c(F)c1,"inconclusive: 5.22 µM [inhibitor, partial curve]",
C=C(C)COc1ccc2c(C)c(CC(=O)N3C[C@H]4C[C@@H](C3)c3cccc(=O)n3C4)c(=O)oc2c1,"inconclusive: 8.28 µM [inhibitor, partial curve]",
C/C(=N\N1CCN(Cc2ccc(Cl)cc2)CC1)c1ccc([N+](=O)[O-])cc1,,inactive: -1.09%
CCCN(Cc1nnc(-c2ccccc2Cl)o1)C(=O)c1ccc(C)c(S(=O)(=O)N2CCOCC2)c1,"inconclusive: 11.7 µM [inhibitor, partial curve, poor fit]",
CCC(=O)Nc1cccc(-n2nnnc2SCC(=O)N2CCCCC2)c1,,inactive: -8.8%
Cc1cc(C)n2nc(C(=O)Nc3cccc(S(=O)(=O)N4CCCC4)c3)nc2n1,"inconclusive: 10.4 µM [inhibitor, single point]",
COC(=O)c1c(C)oc(C)c1S(=O)(=O)N1CCCCC1,,inactive: 28.1%
CCSc1nc(O)cc(=O)n1-c1ccc(OC)cc1,,inactive: 20.4%
CCOc1ccc(C(=O)NCC(c2cccs2)N(C)C)cc1 (stereo unspecified),"inconclusive: 0.0586 µM [inhibitor, full curve, poor fit]",
NC(=O)CCn1ccc2ccccc21,,inactive: 38.7%
Cc1ccc2nc(Nc3ncc4c(n3)CCCC4=O)nc(C)c2c1,"inconclusive: 18.5 µM [inhibitor, single point]",
CC(C)(C)n1nnnc1SCC(=O)Nc1nn(-c2ccccc2)nc1C(N)=O,"inconclusive: 0.329 µM [inhibitor, full curve, poor fit]",
Cc1nc2c(-c3ccc(F)cc3)c(C)nn2c(C)c1CCC(=O)N1CCC(Cc2ccccc2)CC1,"inconclusive: 8.28 µM [inhibitor, partial curve]",
Cc1ccc(S(=O)(=O)Oc2ccc(/C=C(/NC(=O)c3ccccc3)C(=O)NCCC(=O)O)cc2)cc1,"inconclusive: 13.1 µM [inhibitor, partial curve, poor fit]",
COc1ccc(NS(=O)(=O)c2cc(NC(=O)C3CCCO3)ccc2N2CCCCC2)cc1 (stereo unspecified),"inconclusive: 18.5 µM [inhibitor, single point]",
CC1=NCC(C)c2c1[nH]c1ccccc21 (stereo unspecified),"inconclusive: 0.104 µM [inhibitor, full curve, poor fit]",
CC12CC(NC(=O)N1c1cccc(C(=O)N3CCN(c4ccccc4F)CC3)c1)c1ccccc1O2 (stereo unspecified),"inconclusive: 18.5 µM [inhibitor, single point]",
